Test results: the supplement of paper PMC10849652
Some of the results follow.

Amino acid sequences for entries named in this document (tags omitted). A change or cut given only in a name is not applied to a line headed by its entry.
UniProt Q96CS3: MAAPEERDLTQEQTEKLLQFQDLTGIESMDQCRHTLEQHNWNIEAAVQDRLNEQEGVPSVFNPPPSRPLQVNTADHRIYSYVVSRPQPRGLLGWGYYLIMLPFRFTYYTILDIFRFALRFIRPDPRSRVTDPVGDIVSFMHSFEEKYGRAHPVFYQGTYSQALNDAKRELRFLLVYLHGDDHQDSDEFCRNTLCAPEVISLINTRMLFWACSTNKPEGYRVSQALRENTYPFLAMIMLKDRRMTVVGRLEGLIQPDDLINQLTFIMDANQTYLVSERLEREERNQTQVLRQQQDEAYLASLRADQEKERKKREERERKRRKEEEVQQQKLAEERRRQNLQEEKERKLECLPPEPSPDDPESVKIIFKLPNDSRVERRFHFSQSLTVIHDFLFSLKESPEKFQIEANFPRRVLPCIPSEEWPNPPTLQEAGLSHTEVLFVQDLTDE
UniProt Q9BSJ8: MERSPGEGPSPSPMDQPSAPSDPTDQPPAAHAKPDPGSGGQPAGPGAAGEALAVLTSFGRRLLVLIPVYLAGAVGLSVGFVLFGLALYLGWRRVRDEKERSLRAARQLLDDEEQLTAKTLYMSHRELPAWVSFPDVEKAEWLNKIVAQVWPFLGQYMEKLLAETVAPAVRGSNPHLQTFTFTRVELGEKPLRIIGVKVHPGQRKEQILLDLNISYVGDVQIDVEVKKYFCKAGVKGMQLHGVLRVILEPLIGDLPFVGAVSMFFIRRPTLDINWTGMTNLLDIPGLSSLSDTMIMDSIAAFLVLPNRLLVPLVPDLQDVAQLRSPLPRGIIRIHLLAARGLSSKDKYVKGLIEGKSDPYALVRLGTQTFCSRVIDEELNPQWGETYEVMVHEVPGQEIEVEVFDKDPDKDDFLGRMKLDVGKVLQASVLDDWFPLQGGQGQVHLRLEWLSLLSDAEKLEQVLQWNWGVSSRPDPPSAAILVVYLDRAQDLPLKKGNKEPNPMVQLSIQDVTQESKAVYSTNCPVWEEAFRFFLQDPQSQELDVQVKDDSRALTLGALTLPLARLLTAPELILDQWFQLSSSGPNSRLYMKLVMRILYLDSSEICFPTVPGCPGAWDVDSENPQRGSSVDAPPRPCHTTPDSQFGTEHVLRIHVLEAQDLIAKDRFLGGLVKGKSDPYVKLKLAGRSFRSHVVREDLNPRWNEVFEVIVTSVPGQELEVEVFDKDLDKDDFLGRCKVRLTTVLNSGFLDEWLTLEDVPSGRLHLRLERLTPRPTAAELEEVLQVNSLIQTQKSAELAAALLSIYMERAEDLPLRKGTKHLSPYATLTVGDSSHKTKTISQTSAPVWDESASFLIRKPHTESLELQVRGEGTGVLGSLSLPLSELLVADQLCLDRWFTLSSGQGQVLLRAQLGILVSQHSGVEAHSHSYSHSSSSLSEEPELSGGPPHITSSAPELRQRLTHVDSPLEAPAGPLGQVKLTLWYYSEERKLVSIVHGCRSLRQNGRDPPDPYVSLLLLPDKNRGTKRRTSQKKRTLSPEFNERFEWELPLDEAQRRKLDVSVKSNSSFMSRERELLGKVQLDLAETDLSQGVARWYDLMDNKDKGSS
UniProt Q0VG06: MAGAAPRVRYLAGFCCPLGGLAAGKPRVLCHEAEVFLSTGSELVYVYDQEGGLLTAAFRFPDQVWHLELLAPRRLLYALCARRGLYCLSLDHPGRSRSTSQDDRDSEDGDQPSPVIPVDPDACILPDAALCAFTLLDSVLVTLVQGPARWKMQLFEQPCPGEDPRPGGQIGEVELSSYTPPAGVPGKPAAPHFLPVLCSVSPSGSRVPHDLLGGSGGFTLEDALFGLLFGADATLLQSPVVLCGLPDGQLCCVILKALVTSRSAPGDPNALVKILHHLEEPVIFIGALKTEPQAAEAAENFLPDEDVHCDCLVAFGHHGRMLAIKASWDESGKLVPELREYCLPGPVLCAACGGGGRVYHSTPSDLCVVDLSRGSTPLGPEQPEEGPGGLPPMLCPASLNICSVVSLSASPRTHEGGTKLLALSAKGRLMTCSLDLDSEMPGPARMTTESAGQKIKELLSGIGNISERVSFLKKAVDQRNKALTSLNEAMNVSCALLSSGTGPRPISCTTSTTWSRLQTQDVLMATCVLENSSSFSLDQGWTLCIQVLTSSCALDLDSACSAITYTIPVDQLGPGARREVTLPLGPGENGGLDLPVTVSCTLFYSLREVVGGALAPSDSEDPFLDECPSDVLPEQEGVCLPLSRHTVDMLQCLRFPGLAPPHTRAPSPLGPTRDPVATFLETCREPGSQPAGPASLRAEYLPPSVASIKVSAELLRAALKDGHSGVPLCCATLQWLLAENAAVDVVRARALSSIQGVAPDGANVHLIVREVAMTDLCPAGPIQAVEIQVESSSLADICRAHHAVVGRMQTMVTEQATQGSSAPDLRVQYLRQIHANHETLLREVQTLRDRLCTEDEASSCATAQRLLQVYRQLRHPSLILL
UniProt Q9NSI2: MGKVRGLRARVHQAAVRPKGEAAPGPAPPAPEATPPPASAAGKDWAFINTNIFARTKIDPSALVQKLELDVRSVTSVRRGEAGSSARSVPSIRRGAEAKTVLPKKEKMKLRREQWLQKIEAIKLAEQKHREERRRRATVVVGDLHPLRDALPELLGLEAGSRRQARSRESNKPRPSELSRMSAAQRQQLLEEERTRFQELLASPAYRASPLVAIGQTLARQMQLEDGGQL
UniProt Q2NKX8: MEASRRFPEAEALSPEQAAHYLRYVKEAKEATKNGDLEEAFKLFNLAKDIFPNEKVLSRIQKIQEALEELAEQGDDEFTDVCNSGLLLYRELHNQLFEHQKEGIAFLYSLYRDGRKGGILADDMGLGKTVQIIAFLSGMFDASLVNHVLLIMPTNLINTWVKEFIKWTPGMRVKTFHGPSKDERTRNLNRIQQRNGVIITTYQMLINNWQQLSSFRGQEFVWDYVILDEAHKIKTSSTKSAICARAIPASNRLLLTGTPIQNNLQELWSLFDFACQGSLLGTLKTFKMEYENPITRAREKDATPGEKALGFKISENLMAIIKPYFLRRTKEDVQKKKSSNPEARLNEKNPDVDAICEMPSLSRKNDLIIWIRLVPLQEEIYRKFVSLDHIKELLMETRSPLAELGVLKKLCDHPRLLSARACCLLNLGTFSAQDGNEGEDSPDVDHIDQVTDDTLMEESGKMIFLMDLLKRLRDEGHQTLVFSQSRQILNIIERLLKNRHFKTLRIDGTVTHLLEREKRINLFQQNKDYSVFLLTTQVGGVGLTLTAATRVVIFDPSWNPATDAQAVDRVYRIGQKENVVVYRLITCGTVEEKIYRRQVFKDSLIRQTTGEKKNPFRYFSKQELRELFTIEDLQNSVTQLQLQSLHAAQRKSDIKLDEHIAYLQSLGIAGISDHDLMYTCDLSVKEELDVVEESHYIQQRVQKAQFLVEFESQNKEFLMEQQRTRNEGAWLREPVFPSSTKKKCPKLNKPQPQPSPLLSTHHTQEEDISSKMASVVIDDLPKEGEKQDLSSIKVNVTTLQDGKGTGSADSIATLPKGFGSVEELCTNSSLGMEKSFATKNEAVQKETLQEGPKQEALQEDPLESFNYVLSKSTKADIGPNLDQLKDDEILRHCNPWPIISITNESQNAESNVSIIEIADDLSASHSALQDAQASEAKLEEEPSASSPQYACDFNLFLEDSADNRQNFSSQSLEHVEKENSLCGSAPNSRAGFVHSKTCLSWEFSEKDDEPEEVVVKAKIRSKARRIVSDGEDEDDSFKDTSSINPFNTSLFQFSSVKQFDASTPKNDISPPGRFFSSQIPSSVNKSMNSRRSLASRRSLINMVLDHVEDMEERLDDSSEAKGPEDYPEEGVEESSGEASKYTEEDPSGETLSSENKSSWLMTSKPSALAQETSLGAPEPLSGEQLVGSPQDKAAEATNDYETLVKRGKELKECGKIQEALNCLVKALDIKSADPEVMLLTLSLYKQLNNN
UniProt Q9UBQ6: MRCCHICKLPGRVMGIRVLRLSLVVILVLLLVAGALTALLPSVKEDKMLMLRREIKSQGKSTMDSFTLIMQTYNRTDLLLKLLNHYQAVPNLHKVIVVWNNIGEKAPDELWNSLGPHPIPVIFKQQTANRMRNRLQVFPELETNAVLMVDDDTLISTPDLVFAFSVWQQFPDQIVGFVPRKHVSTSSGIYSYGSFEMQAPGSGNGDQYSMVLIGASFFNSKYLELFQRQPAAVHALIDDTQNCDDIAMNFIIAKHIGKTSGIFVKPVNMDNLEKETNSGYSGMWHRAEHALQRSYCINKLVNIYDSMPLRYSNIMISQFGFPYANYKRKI
UniProt Q8IYI6: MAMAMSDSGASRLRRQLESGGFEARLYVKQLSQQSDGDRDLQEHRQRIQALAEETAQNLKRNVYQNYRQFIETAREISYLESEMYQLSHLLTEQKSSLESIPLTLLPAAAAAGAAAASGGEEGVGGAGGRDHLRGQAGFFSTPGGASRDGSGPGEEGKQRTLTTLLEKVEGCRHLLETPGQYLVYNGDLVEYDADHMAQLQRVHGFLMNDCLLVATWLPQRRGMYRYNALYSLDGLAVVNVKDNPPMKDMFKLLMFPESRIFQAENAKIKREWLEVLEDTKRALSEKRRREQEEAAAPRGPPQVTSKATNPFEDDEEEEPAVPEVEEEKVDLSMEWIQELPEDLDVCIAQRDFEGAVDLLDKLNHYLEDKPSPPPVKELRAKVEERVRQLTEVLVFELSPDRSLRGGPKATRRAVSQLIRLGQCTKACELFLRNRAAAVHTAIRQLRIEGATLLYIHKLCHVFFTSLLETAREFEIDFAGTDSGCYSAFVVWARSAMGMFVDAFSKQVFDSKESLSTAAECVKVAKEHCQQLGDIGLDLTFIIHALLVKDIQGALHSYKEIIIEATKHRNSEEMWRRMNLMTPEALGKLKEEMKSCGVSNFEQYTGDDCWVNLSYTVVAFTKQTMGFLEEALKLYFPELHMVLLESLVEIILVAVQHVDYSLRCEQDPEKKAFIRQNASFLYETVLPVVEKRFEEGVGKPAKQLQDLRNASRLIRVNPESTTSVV
UniProt Q96DF8: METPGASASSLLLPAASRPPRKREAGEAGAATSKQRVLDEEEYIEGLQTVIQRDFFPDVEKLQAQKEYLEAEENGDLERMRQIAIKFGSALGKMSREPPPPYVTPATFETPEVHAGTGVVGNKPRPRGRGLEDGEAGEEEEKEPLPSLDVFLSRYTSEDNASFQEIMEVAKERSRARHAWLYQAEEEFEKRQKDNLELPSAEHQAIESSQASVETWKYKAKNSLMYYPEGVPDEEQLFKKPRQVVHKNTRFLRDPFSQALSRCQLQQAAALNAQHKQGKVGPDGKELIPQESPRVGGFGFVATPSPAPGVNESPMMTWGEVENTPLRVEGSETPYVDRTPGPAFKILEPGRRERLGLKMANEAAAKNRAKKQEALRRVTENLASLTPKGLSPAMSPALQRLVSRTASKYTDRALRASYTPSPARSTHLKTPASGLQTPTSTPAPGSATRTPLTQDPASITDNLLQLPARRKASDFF
UniProt P05413, whole entry, looked up: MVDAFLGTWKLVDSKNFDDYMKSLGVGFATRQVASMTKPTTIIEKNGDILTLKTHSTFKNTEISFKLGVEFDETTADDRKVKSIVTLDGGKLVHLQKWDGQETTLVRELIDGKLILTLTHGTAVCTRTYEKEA
UniProt Q8WUF8: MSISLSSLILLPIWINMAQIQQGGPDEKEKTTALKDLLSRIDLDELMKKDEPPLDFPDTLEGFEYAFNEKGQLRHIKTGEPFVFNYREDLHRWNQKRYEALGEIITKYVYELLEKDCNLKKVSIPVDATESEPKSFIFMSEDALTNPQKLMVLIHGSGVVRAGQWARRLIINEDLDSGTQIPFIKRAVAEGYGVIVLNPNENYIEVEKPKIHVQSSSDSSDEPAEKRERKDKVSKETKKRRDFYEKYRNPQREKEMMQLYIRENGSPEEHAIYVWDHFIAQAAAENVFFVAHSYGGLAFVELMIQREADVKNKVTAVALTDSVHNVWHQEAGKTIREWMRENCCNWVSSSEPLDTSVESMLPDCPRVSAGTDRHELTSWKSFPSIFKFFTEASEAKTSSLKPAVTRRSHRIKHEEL
UniProt Q7Z309: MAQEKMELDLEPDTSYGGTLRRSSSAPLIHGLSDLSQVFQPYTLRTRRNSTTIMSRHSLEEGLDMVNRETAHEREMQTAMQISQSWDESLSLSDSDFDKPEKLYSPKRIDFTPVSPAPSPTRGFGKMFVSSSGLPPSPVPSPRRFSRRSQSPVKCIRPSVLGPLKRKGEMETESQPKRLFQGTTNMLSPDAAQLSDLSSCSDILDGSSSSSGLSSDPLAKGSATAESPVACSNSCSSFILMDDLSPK

Legend:
Test in all cases: log2 fold change, soluble protein after heating vs DMSO (PISA); higher = thermal stabilisation; K562 cells, 10 uM, 30 min; active = over 0.2 and 3.5 SD of the protein, either way, in both replicates (recomputed)
[1] = compound: CC[C@@H]1C(=O)N(C)c2cnc(Nc3ccc(C(=O)NC4CCN(C)CC4)cc3OC)nc2N1C1CCCC1
How it was run: (§1)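 Values are thermal stability changes relative to control samples and are taken from duplicates. They are stated as log2 fold changes. Before quantification by TMTpro 16plex LC-MS/MS with equalised channel sums, K562 cells at 2×10^6 cells/mL were treated with 10 μM compound for 30 min, heated in aliquots for 3 min across 48°C-58°C, pooled, extracted in PBS with 0.5% NP-40 at 4°C, and centrifuged at 21,000xg for 90 min to give the soluble supernatant.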

volasertib = compound: CC[C@@H]1C(=O)N(C)c2cnc(Nc3ccc(C(=O)N[C@H]4CC[C@H](N5CCN(CC6CC6)CC5)CC4)cc3OC)nc2N1C(C)C [volasertib]
How it was run: as §1

[2] = compound: CC[C@H](C)N1C=C(C2=C(C=C(C=C21)C3=CN=C(C=C3)N4CCNCC4)C(=O)NCC5=C(C=C(NC5=O)C)C)C
How it was run: as §1

epoxomicin = compound: CC[C@H](C)[C@@H](C(=O)N[C@@H]([C@@H](C)O)C(=O)N[C@@H](CC(C)C)C(=O)[C@]1(CO1)C)NC(=O)[C@H]([C@@H](C)CC)N(C)C(=O)C [epoxomicin]
How it was run: as §1

[3] = compound: CCn1cc(-c2ccnc3[nH]c(-c4cccc(CN(C)C)c4)cc23)c(-c2ccc(NC(=O)N(C)C)cc2)n1
How it was run: as §1

[4] = compound: CN(C)CC(=O)Nc1ccc2[nH]c(=O)c3ccccc3c2c1
How it was run: as §1

[5] = compound: CN1C2=C(C3=C1C(=O)N(N=C3)CC4=CC(=CC=C4)N)SC(=C2)S(=O)C
How it was run: as §1

[6] = compound: CN1CCC(CNc2ccc3ncc(-c4cccc(OC(F)(F)F)c4)n3n2)CC1
How it was run: as §1

saracatinib = compound: CN1CCN(CCOc2cc(OC3CCOCC3)c3c(Nc4c(Cl)ccc5c4OCO5)ncnc3c2)CC1 [saracatinib]
How it was run: as §1

sotrastaurin = compound: CN1CCN(c2nc(C3=C(c4c[nH]c5ccccc45)C(=O)NC3=O)c3ccccc3n2)CC1 [sotrastaurin]
How it was run: as §1

Tubastatin A = compound: CN1CCc2c(c3ccccc3n2Cc2ccc(C(=O)NO)cc2)C1 [Tubastatin A]
How it was run: as §1

[7] = compound: CNC(=O)C1=CC=CC=C1NC2=NC(=NC=C2Cl)NC3=C(C=C(C=C3)N4CCOCC4)OC
How it was run: as §1

defactinib = compound: CNC(=O)c1ccc(Nc2ncc(C(F)(F)F)c(NCc3nccnc3N(C)S(C)(=O)=O)n2)cc1 [defactinib]
How it was run: as §1

rucaparib = compound: CNCc1ccc(-c2[nH]c3cc(F)cc4c3c2CCNC4=O)cc1 [rucaparib]
How it was run: as §1

[8] = compound: CNc1nc(-c2ccc3c(N)n[nH]c3c2)cc(N2C[C@@H](C(=O)NC3CCCCC3)CC[C@H]2C)n1
How it was run: as §1

encorafenib = compound: COC(=O)N[C@@H](C)CNc1nccc(-c2cn(C(C)C)nc2-c2cc(Cl)cc(NS(C)(=O)=O)c2F)n1 [encorafenib]
How it was run: as §1

[9] = compound: COC(=O)[C@H](CCSC)NC(=O)C1=C(C=C(C=C1)NC[C@H](CS)N)C2=CC=CC=C2
How it was run: as §1

rosiglitazone = compound: CN(CCOC1=CC=C(C=C1)C[C@H]2C(=O)NC(=O)S2)C3=CC=CC=N3 (racemic) [rosiglitazone]
How it was run: as §1

alvocidib = compound: CN1CC[C@H](c2c(O)cc(O)c3c(=O)cc(-c4ccccc4Cl)oc23)[C@H](O)C1 [alvocidib]
How it was run: as §1

[10] = compound: CCn1c(C(=O)N(C2CC2)C2CC2)cc2c3c(ncn3C)c(Nc3cc(C)n(C)n3)nc21
How it was run: as §1

Measured: log2 fold change

FAF2 (UniProt Q96CS3)
active: volasertib -0.322
inactive: [1] -0.095 | [2] 0.002 | epoxomicin -0.046 | [3] 0.018 | [4] 0.037 | [5] 0.016 | [6] -0.069 | saracatinib -0.084 | sotrastaurin -0.048 | Tubastatin A -0.008 | [7] 0.021 | defactinib -0.011 | rucaparib 0.015 | [8] 0.021 | encorafenib 0.036 | [9] 0

ESYT1 isoform 2 (UniProt Q9BSJ8)
inactive: [1] 0.007 | volasertib -0.37 | [2] 0.099 | epoxomicin 0.026 | [3] 0 | [4] 0.033 | [5] 0.063 | [6] 0.115 | saracatinib -0.148 | sotrastaurin -0.208 | Tubastatin A 0.031 | [7] -0.034 | defactinib -0.043 | rucaparib 0.154 | [8] 0.099 | encorafenib 0.175 | [9] -0.099

EXOC1 (UniProt Q9NV70)
inactive: [1] -0.219 | volasertib -0.44 | [2] 0.077 | epoxomicin -0.012 | [3] 0.023 | [4] 0.084 | [5] 0.1 | [6] -0.319 | saracatinib 0.013 | sotrastaurin -0.249 | Tubastatin A 0.038 | [7] -0.002 | defactinib -0.074 | rucaparib 0.172 | [8] 0.066 | encorafenib 0.06 | [9] -0.081

FAAP100 (UniProt Q0VG06)
inactive: [1] -0.01 | volasertib 0.149 | [2] -0.02 | epoxomicin 0.139 | [3] -0.093 | [4] 0.061 | [5] -0.02 | [6] 0.124 | saracatinib 0.044 | sotrastaurin -0.014 | Tubastatin A 0.028 | [7] -0.178 | defactinib -0.044 | rucaparib 0.009 | [8] -0.067 | encorafenib -0.04 | [9] -0.097

ERCC6 (UniProt Q03468)
inactive: [1] 0.072 | volasertib -0.135 | [2] -0.06 | epoxomicin 0.015 | [3] -0.091 | [4] 0.004 | [5] -0.009 | [6] 0.08 | saracatinib -0.006 | sotrastaurin 0.169 | Tubastatin A -0.093 | [7] 0.126 | defactinib 0.016 | rucaparib 0 | [8] -0.085 | encorafenib -0.088 | [9] 0.055

EXOC2 (UniProt Q96KP1)
inactive: [1] -0.13 | volasertib -0.463 | [2] -0.041 | epoxomicin 0 | [3] 0.044 | [4] 0.058 | [5] 0.123 | saracatinib -0.058 | sotrastaurin -0.214 | Tubastatin A 0.044 | [7] 0.064 | defactinib -0.096 | rucaparib 0.136 | [8] -0.004 | encorafenib 0.126 | [9] -0.085
active: [6] -0.386

ERCC2 (UniProt P18074)
active: epoxomicin 0.326
inactive: [1] -0.015 | volasertib -0.258 | [2] 0.043 | [3] -0.076 | [4] -0.019 | [5] 0.013 | [6] -0.153 | saracatinib -0.016 | sotrastaurin -0.035 | Tubastatin A 0.051 | [7] -0.01 | defactinib -0.094 | rucaparib -0.013 | [8] -0.027 | encorafenib 0.177 | [9] -0.005

FAM117A (UniProt Q9C073)
inactive: [1] 0.001 | volasertib 0.129 | [2] 0.071 | epoxomicin 0.091 | [3] -0.025 | [4] 0.028 | [5] -0.008 | [6] -0.182 | saracatinib -0.019 | sotrastaurin 0.009 | Tubastatin A 0.058 | defactinib -0.141 | rucaparib -0.079 | [8] 0.083 | encorafenib -0.023 | [9] 0.009
active: [7] -0.268

FAM207A (UniProt Q9NSI2)
active: [6] 0.418
inactive: [1] -0.085 | volasertib -0.165 | [2] 0.044 | epoxomicin -0.024 | [3] 0.023 | [4] 0.05 | [5] 0.168 | saracatinib 0.005 | sotrastaurin -0.115 | Tubastatin A 0.106 | [7] 0.028 | defactinib 0 | rucaparib 0.064 | [8] 0.007 | encorafenib 0.149 | [9] 0.031

ERCC6L (UniProt Q2NKX8)
inactive: [1] 0.068 | volasertib 0.008 | [2] 0.072 | epoxomicin -0.149 | [3] 0.148 | [4] -0.048 | rosiglitazone 0.05 | [6] -0.028 | sotrastaurin -0.058 | alvocidib 0.047 | Tubastatin A 0.101 | defactinib -0.096 | rucaparib -0.053 | encorafenib 0.161 | [9] -0.173

EXTL2 (UniProt Q9UBQ6)
inactive: [1] 0.057 | volasertib -0.052 | [2] 0.041 | epoxomicin -0.035 | [3] -0.046 | [4] 0.06 | [5] -0.001 | [6] -0.157 | saracatinib 0.157 | sotrastaurin 0.036 | Tubastatin A -0.136 | [7] -0.072 | defactinib -0.145 | rucaparib 0.001 | [8] 0.052 | encorafenib -0.08 | [9] 0.13

EWSR1 (UniProt H7BY36)
inactive: [1] 0.003 | volasertib -0.015 | [2] -0.02 | epoxomicin 0.255 | [10] -0.062 | [4] -0.05 | rosiglitazone 0.118 | alvocidib -0.126 | [7] -0.141 | defactinib -0.068 | rucaparib 0.045 | encorafenib -0.08 | [9] 0.14

ESYT2 (UniProt H7BXI1)
inactive: [1] -0.046 | volasertib 0.045 | [2] 0.006 | epoxomicin -0.13 | [10] -0.187 | [4] 0.003 | rosiglitazone 0.001 | [5] 0.137 | saracatinib 0.052 | sotrastaurin 0.091 | [7] 0.062 | defactinib -0.103 | rucaparib -0.062 | [8] -0.076 | encorafenib 0.066 | [9] -0.009

EXOC8 (UniProt Q8IYI6)
inactive: [1] -0.212 | [2] 0.045 | epoxomicin -0.004 | [3] 0.003 | [4] 0.073 | [5] 0.009 | saracatinib -0.015 | sotrastaurin -0.196 | Tubastatin A -0.012 | [7] 0.056 | defactinib -0.069 | rucaparib 0.016 | [8] 0.112 | encorafenib 0.094 | [9] -0.047
active: volasertib -0.367 | [6] -0.295

EXTL3 (UniProt O43909)
inactive: [1] -0.014 | volasertib -0.003 | [2] 0.232 | epoxomicin 0.166 | [3] -0.015 | [4] -0.013 | rosiglitazone -0.014 | [5] 0.073 | [6] 0.01 | saracatinib -0.088 | sotrastaurin 0.136 | alvocidib -0.117 | Tubastatin A -0.028 | defactinib 0.037 | rucaparib 0.009 | [8] -0.127 | encorafenib 0.094 | [9] -0.016

EVC2 (UniProt Q86UK5)
inactive: [1] -0.133 | volasertib -0.003 | [2] 0.078 | epoxomicin 0.097 | [3] -0.037 | [4] -0.087 | [5] 0.034 | [6] -0.293 | saracatinib -0.151 | sotrastaurin 0.067 | Tubastatin A -0.033 | [7] -0.035 | defactinib -0.065 | rucaparib 0.065 | [8] 0.035 | encorafenib 0.002 | [9] 0.073

ESS2 (UniProt Q96DF8)
inactive: [1] -0.025 | [2] -0.077 | epoxomicin -0.012 | [3] 0.036 | [4] -0.032 | [5] 0.024 | [6] -0.012 | saracatinib 0.041 | sotrastaurin -0.025 | Tubastatin A -0.055 | [7] -0.038 | defactinib 0 | rucaparib -0.013 | [8] -0.142 | encorafenib -0.012 | [9] 0.01
active: volasertib -0.245

FABP3 (UniProt P05413)
inactive: [1] 0.101 | rucaparib 0.346 | encorafenib -0.221

FAM172A (UniProt Q8WUF8)
inactive: [1] -0.132 | [2] -0.087 | epoxomicin -0.028 | [3] 0.144 | [4] 0.027 | rosiglitazone 0.039 | [6] 0.134 | sotrastaurin -0.087 | alvocidib -0.012 | defactinib -0.002 | rucaparib -0.09 | encorafenib 0.033 | [9] -0.054

FAM122B isoform 3 (UniProt Q7Z309)
inactive: [1] -0.076 | [2] 0.083 | epoxomicin 0.012 | [10] -0.048 | [3] -0.114 | [4] -0.096 | rosiglitazone -0.022 | [5] 0.008 | [6] -0.014 | saracatinib -0.104 | sotrastaurin 0.007 | alvocidib -0.147 | Tubastatin A 0.031 | [7] -0.191 | defactinib -0.001 | rucaparib 0.043 | [8] -0.121 | encorafenib 0.168 | [9] 0.131
